Data source: PubChem BioAssay AID652243 (Drosophila RNAi Screening Center, 2013)
The screen tested about 24,000 reagents; this is a random part of those that have a named target and a result. Of all reagents, 246 (1%) are marked active. 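Plates not normalised; calls are printed but the firefly/Renilla ratio behind them is not deposited; fold cut for lowering reported inconsistently.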 Raw values vary from plate to plate and are shown uncorrected. Names joined by + are all predicted targets of the reagent. The record does not give: the amount of reagent.

Purpose: 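Knock-downs that decrease or increase androgen receptor reporter signal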 (primary screen)
System: Drosophila S2R+ cells
Reagent: long dsRNA against Drosophila genes
Duration: 72 h (48 h, then 24 h hormone)
Challenge: synthetic androgen R1881 at 10 nM for 24 h
Detection: 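Firefly light from an androgen-responsive reporter and Renilla control light per well, raw and unnormalised, for each of two replicates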
Scale: firefly reporter light: higher = more light from androgen-responsive reporter; Renilla control light: higher = more constitutive control signal (cell number, transfection)
Active means: 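Across duplicate plates, a knock-down whose log firefly/Renilla ratio shifted a set fold down or up from the GFP/LacZ control mean was a hit; the downward cut appears as both 1.5 and 3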
Calls: active = hit: reporter lowered or raised; inactive = no hit

For CR41509 + Clbn + CR41507 + 1 more [DRSC38658], how do the results read?
firefly reporter light, replicate 1: 9.24e5; firefly reporter light, replicate 2: 8.55e5; Renilla control light, replicate 1: 1.97e6; Renilla control light, replicate 2: 2.34e6; outcome: inactive

For CG2616 [DRSC15440], how do the results read?
firefly reporter light, replicate 1: 76033; firefly reporter light, replicate 2: 87551; Renilla control light, replicate 1: 1.66e6; Renilla control light, replicate 2: 1.80e6; outcome: inactive

What did the screen give for CG2616 [DRSC24316]?
firefly reporter light, replicate 1: 7.34e5; firefly reporter light, replicate 2: 8.25e5; Renilla control light, replicate 1: 7.85e5; Renilla control light, replicate 2: 7.37e5; outcome: inactive

For Lis-1 [DRSC07459], how do the results read?
firefly reporter light, replicate 1: 81677; firefly reporter light, replicate 2: 1.26e5; Renilla control light, replicate 1: 2.45e6; Renilla control light, replicate 2: 2.45e6; outcome: inactive

Which result is listed for dnk [DRSC16933]?
firefly reporter light, replicate 1: 1.76e5; firefly reporter light, replicate 2: 1.70e5; Renilla control light, replicate 1: 2.83e6; Renilla control light, replicate 2: 2.78e6; outcome: inactive

How did the screen score dnk [DRSC29240]?
firefly reporter light, replicate 1: 4.76e5; firefly reporter light, replicate 2: 7.02e5; Renilla control light, replicate 1: 1.19e6; Renilla control light, replicate 2: 1.12e6; outcome: inactive

Which result is listed for CG5062 [DRSC18385]?
firefly reporter light, replicate 1: 2.30e5; firefly reporter light, replicate 2: 3.62e5; Renilla control light, replicate 1: 2.62e6; Renilla control light, replicate 2: 1.57e6; outcome: inactive

A portion from the list above, for reference:
CG2616 [DRSC24316]: firefly reporter light, replicate 1 = 7.34e5; firefly reporter light, replicate 2 = 8.25e5; Renilla control light, replicate 1 = 7.85e5; Renilla control light, replicate 2 = 7.37e5; outcome = inactive
Lis-1 [DRSC07459]: firefly reporter light, replicate 1 = 81677; firefly reporter light, replicate 2 = 1.26e5; Renilla control light, replicate 1 = 2.45e6; Renilla control light, replicate 2 = 2.45e6; outcome = inactive

More results follow:
For aPKC [DRSC05515], what was measured?
firefly reporter light, replicate 1: 2.24e5; firefly reporter light, replicate 2: 1.85e5; Renilla control light, replicate 1: 6.89e5; Renilla control light, replicate 2: 5.15e5; outcome: inactive

With aPKC [DRSC07639], what does the deposit list?
firefly reporter light, replicate 1: 72846; firefly reporter light, replicate 2: 88529; Renilla control light, replicate 1: 1.61e6; Renilla control light, replicate 2: 1.61e6; outcome: inactive

Which result is listed for aPKC [DRSC28133]?
firefly reporter light, replicate 1: 3.60e5; firefly reporter light, replicate 2: 4.63e5; Renilla control light, replicate 1: 1.27e6; Renilla control light, replicate 2: 1.45e6; outcome: inactive

For aPKC [DRSC29936], what was measured?
firefly reporter light, replicate 1: 3.69e5; firefly reporter light, replicate 2: 3.55e5; Renilla control light, replicate 1: 1.01e6; Renilla control light, replicate 2: 1.34e6; outcome: inactive

What did the screen give for aPKC [DRSC37031]?
outcome: inactive

How did the screen score CG11414 [DRSC04110]?
firefly reporter light, replicate 1: 6.93e5; firefly reporter light, replicate 2: 6.66e5; Renilla control light, replicate 1: 1.32e6; Renilla control light, replicate 2: 1.43e6; outcome: inactive

What is on record for Vha16-3 [DRSC10872]?
firefly reporter light, replicate 1: 3.37e5; firefly reporter light, replicate 2: 2.43e5; Renilla control light, replicate 1: 3.49e6; Renilla control light, replicate 2: 2.77e6; outcome: inactive

For Vha16-3 [DRSC25513], what does the deposit list?
firefly reporter light, replicate 1: 3.36e5; firefly reporter light, replicate 2: 2.77e5; Renilla control light, replicate 1: 1.10e6; Renilla control light, replicate 2: 5.92e5; outcome: inactive

With Atg4a [DRSC00656], what does the deposit list?
firefly reporter light, replicate 1: 5.57e5; firefly reporter light, replicate 2: 7.69e5; Renilla control light, replicate 1: 1.03e6; Renilla control light, replicate 2: 1.13e6; outcome: inactive

With Atg4a [DRSC28580], what was measured?
firefly reporter light, replicate 1: 9.37e5; firefly reporter light, replicate 2: 7.05e5; Renilla control light, replicate 1: 2.49e6; Renilla control light, replicate 2: 1.89e6; outcome: inactive

For CG33928 [DRSC37816], how do the results read?
firefly reporter light, replicate 1: 5.15e5; firefly reporter light, replicate 2: 4.31e5; Renilla control light, replicate 1: 1.27e6; Renilla control light, replicate 2: 1.21e6; outcome: inactive

With CG1407 [DRSC29339], what does the deposit list?
firefly reporter light, replicate 1: 9.31e5; firefly reporter light, replicate 2: 5.74e5; Renilla control light, replicate 1: 1.03e6; Renilla control light, replicate 2: 1.03e6; outcome: inactive

How did the screen score CG12522 [DRSC09088]?
firefly reporter light, replicate 1: 33395; firefly reporter light, replicate 2: 88236; Renilla control light, replicate 1: 1.24e5; Renilla control light, replicate 2: 1.38e5; outcome: inactive

With CG12522 [DRSC25372], what was measured?
firefly reporter light, replicate 1: 4.49e5; firefly reporter light, replicate 2: 6.10e5; Renilla control light, replicate 1: 9.46e5; Renilla control light, replicate 2: 8.27e5; outcome: inactive
